PubChem BioAssay AID1224828 – NIAID | 2016

Screen: 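Find genes required for NF-kappaB p65 moving into the nucleus after LPS in mouse macrophages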 (primary screen)
Cell system: mouse RAW264.7 G9 macrophage reporter cells (GFP-p65, Tnf promoter-mCherry)
Reagent: siRNA pool against mouse genes, 100 nM
Timing: 2 days siRNA transfection, then 40 min LPS before fixation
Challenge: LPS (Salmonella minnesota R595) at 10 ng/ml
Read-out: 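Imaged p65 nuclear translocation ratio, normalised to the plate median, converted to robust z-scores and averaged across two replicates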
Direction: p65 translocation robust z-score: higher = more nuclear NF-kappaB p65 after LPS than the plate median; nuclear/cytoplasmic p65 ratio: higher = more nuclear NF-kappaB p65
Rule for the call: 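Called active when z exceeds 3.3 or falls under -1.56 (median of Tlr4 controls), giving activity score of at least 50; no calls for control wells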
Meaning of the calls: active = hit (p65 shift raised or lowered); inactive = no clear change
Shown is a random part of about 17,000 deposited reagents. 762 of them (4.5%) count as active. 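Active calls include both raised and lowered p65 entry, mostly lowered; wells with fewer than 50 cells lack a z-score.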 The raw values are shown without normalisation.

For Agpat3, the values are p65 translocation robust z-score 0.17; nuclear/cytoplasmic p65 ratio, rep 1 = 1.69; nuclear/cytoplasmic p65 ratio, rep 2 = 1.65; low cell count flag enough cells to score; inactive.
For Hnrnpl, the entry reads p65 translocation robust z-score -1.05; nuclear/cytoplasmic p65 ratio, rep 1 = 1.44; nuclear/cytoplasmic p65 ratio, rep 2 = 1.44; low cell count flag enough cells to score; inactive.
Tyro3 scored p65 translocation robust z-score 0.49; nuclear/cytoplasmic p65 ratio, rep 1 = 1.91; nuclear/cytoplasmic p65 ratio, rep 2 = 1.34; low cell count flag enough cells to score; inactive.
For Serpinb1a the deposit lists p65 translocation robust z-score -0.09; nuclear/cytoplasmic p65 ratio, rep 1 = 1.49; nuclear/cytoplasmic p65 ratio, rep 2 = 1.59; low cell count flag enough cells to score; inactive.
Against Timd4 the deposit lists p65 translocation robust z-score 0.76; nuclear/cytoplasmic p65 ratio, rep 1 = 1.6; nuclear/cytoplasmic p65 ratio, rep 2 = 1.73; low cell count flag enough cells to score; inactive.
Knock-down of Khdrbs2 gave: p65 translocation robust z-score 0.85; nuclear/cytoplasmic p65 ratio, rep 1 = 1.5; nuclear/cytoplasmic p65 ratio, rep 2 = 1.7; low cell count flag enough cells to score; inactive.
After knock-down of Tas2r105 the results were p65 translocation robust z-score 1.91; nuclear/cytoplasmic p65 ratio, rep 1 = 1.61; nuclear/cytoplasmic p65 ratio, rep 2 = 1.23; low cell count flag enough cells to score; inactive.
After knock-down of Bfsp1, the record shows p65 translocation robust z-score -1.17; nuclear/cytoplasmic p65 ratio, rep 1 = 1.28; nuclear/cytoplasmic p65 ratio, rep 2 = 1.35; low cell count flag enough cells to score; inactive.
Insig2 gave p65 translocation robust z-score 1.37; nuclear/cytoplasmic p65 ratio, rep 1 = 1.64; nuclear/cytoplasmic p65 ratio, rep 2 = 1.58; low cell count flag enough cells to score; inactive.
Depletion of Phb2 came out at: p65 translocation robust z-score -0.47; nuclear/cytoplasmic p65 ratio, rep 1 = 1.71; nuclear/cytoplasmic p65 ratio, rep 2 = 1.53; low cell count flag enough cells to score; inactive.
For C230013L11Rik, the entry reads nuclear/cytoplasmic p65 ratio, rep 1 = 1.24; nuclear/cytoplasmic p65 ratio, rep 2 = 1.33; low cell count flag fewer than 50 cells per well; well left out of scoring; inactive.
Knock-down of Shmt1 resulted in: p65 translocation robust z-score 0.92; nuclear/cytoplasmic p65 ratio, rep 1 = 1.7; nuclear/cytoplasmic p65 ratio, rep 2 = 1.67; low cell count flag enough cells to score; inactive.
Dnajb9 scored p65 translocation robust z-score 3.47; nuclear/cytoplasmic p65 ratio, rep 1 = 1.97; nuclear/cytoplasmic p65 ratio, rep 2 = 1.77; low cell count flag enough cells to score; active.
Pcolce2 gave p65 translocation robust z-score -1.92; nuclear/cytoplasmic p65 ratio, rep 1 = 1.13; nuclear/cytoplasmic p65 ratio, rep 2 = 1.07; low cell count flag enough cells to score; active.
Silencing of Tusc2 came out at: nuclear/cytoplasmic p65 ratio, rep 1 = 1.46; nuclear/cytoplasmic p65 ratio, rep 2 = 1.23; low cell count flag fewer than 50 cells per well; well left out of scoring; inactive.
Prkx scored p65 translocation robust z-score 0.93; nuclear/cytoplasmic p65 ratio, rep 1 = 1.82; nuclear/cytoplasmic p65 ratio, rep 2 = 1.51; low cell count flag enough cells to score; inactive.
Calcrl scored nuclear/cytoplasmic p65 ratio, rep 1 = 1.66; nuclear/cytoplasmic p65 ratio, rep 2 = 1.66; low cell count flag fewer than 50 cells per well; well left out of scoring; inactive.
Depletion of Dhdh gave: nuclear/cytoplasmic p65 ratio, rep 1 = 1.25; nuclear/cytoplasmic p65 ratio, rep 2 = 1.23; low cell count flag fewer than 50 cells per well; well left out of scoring; inactive.
Against Sec24b the deposit lists p65 translocation robust z-score 0.54; nuclear/cytoplasmic p65 ratio, rep 1 = 1.63; nuclear/cytoplasmic p65 ratio, rep 2 = 1.82; low cell count flag enough cells to score; inactive.
Drd1 scored p65 translocation robust z-score -1.21; nuclear/cytoplasmic p65 ratio, rep 1 = 1.35; nuclear/cytoplasmic p65 ratio, rep 2 = 1.39; low cell count flag enough cells to score; inactive.
Depletion of Serhl resulted in: p65 translocation robust z-score 4.54; nuclear/cytoplasmic p65 ratio, rep 1 = 1.53; nuclear/cytoplasmic p65 ratio, rep 2 = 2.88; low cell count flag enough cells to score; active.

4 entries already listed, ordered by “nuclear/cytoplasmic p65 ratio, rep 1”, high to low.
Dnajb9: p65 translocation robust z-score = 3.47; nuclear/cytoplasmic p65 ratio, rep 1 = 1.97; nuclear/cytoplasmic p65 ratio, rep 2 = 1.77; low cell count flag = enough cells to score; Outcome = active
Phb2: p65 translocation robust z-score = -0.47; nuclear/cytoplasmic p65 ratio, rep 1 = 1.71; nuclear/cytoplasmic p65 ratio, rep 2 = 1.53; low cell count flag = enough cells to score; Outcome = inactive
Shmt1: p65 translocation robust z-score = 0.92; nuclear/cytoplasmic p65 ratio, rep 1 = 1.7; nuclear/cytoplasmic p65 ratio, rep 2 = 1.67; low cell count flag = enough cells to score; Outcome = inactive
C230013L11Rik: nuclear/cytoplasmic p65 ratio, rep 1 = 1.24; nuclear/cytoplasmic p65 ratio, rep 2 = 1.33; low cell count flag = fewer than 50 cells per well; well left out of scoring; Outcome = inactive
